Test results published in the supplement of paper PMC12819154, “High-throughput peptide-centric local stability assay extends protein–ligand identification to membrane proteins, tissues and bacteria” (Nature Structural & Molecular Biology, 2025).
The list shows a part of the results. Small differences around the control level are noise.

By UniProt entry, the sequences of proteins in these tests, tags left out. Where a name states a change or a piece, a line headed by the entry shows the natural chain unless it says otherwise.
UniProt Q49AG3: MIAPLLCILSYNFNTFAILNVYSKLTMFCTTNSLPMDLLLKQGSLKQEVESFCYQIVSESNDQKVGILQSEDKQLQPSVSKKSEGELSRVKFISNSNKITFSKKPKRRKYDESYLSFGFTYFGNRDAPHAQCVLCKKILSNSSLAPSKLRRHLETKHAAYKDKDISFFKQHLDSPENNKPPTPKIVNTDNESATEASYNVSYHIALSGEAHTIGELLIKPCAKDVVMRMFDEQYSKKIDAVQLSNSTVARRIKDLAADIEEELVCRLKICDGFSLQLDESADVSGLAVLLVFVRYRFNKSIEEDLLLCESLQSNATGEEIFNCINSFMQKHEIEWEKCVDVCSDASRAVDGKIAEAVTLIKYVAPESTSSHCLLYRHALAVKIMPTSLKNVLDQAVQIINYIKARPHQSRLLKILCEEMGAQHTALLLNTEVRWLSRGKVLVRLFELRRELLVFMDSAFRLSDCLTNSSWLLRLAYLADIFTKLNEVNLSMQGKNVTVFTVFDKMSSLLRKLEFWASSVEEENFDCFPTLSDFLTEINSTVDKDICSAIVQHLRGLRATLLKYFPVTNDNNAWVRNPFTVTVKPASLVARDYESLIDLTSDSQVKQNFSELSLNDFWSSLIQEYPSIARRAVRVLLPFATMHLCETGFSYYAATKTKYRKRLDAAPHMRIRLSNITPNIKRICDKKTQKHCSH
UniProt Q2NKX9: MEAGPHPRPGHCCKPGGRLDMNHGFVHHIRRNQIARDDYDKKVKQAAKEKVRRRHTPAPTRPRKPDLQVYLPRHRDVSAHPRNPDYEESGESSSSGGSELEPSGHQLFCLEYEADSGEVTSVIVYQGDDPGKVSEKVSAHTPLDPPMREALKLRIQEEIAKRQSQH
UniProt Q32P51: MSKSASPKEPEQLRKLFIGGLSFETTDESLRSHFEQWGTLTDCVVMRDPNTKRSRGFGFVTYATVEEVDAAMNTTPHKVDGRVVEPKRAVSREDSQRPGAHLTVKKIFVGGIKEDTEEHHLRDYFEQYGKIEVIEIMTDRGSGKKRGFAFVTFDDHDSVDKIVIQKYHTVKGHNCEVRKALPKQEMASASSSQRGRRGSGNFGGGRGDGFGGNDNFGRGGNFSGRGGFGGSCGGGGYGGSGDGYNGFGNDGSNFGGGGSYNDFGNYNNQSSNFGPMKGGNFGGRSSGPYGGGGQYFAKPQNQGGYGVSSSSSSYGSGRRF
UniProt Q16560: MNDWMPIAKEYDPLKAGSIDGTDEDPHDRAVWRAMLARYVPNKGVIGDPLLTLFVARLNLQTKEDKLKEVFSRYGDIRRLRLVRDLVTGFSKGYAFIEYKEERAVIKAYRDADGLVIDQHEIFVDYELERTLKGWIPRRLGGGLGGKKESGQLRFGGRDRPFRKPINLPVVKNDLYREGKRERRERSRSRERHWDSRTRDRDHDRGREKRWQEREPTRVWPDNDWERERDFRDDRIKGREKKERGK
UniProt Q15311: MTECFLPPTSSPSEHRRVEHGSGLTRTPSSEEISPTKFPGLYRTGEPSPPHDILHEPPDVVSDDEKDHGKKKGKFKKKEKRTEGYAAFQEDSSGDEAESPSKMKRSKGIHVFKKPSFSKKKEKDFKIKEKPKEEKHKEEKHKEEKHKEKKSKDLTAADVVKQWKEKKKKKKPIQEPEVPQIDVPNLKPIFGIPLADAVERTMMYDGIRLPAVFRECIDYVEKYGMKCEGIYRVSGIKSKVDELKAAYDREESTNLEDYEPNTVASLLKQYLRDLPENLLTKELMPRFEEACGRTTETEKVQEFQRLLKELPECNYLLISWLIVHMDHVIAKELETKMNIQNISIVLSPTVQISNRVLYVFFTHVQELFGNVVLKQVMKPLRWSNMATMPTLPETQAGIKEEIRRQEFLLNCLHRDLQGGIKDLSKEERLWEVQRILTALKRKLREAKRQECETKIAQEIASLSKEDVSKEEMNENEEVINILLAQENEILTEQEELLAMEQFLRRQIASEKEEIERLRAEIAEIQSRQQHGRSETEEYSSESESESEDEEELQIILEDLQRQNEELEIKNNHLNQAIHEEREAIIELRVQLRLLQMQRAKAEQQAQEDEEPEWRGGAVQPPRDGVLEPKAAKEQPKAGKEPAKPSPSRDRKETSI
UniProt Q1MSJ5: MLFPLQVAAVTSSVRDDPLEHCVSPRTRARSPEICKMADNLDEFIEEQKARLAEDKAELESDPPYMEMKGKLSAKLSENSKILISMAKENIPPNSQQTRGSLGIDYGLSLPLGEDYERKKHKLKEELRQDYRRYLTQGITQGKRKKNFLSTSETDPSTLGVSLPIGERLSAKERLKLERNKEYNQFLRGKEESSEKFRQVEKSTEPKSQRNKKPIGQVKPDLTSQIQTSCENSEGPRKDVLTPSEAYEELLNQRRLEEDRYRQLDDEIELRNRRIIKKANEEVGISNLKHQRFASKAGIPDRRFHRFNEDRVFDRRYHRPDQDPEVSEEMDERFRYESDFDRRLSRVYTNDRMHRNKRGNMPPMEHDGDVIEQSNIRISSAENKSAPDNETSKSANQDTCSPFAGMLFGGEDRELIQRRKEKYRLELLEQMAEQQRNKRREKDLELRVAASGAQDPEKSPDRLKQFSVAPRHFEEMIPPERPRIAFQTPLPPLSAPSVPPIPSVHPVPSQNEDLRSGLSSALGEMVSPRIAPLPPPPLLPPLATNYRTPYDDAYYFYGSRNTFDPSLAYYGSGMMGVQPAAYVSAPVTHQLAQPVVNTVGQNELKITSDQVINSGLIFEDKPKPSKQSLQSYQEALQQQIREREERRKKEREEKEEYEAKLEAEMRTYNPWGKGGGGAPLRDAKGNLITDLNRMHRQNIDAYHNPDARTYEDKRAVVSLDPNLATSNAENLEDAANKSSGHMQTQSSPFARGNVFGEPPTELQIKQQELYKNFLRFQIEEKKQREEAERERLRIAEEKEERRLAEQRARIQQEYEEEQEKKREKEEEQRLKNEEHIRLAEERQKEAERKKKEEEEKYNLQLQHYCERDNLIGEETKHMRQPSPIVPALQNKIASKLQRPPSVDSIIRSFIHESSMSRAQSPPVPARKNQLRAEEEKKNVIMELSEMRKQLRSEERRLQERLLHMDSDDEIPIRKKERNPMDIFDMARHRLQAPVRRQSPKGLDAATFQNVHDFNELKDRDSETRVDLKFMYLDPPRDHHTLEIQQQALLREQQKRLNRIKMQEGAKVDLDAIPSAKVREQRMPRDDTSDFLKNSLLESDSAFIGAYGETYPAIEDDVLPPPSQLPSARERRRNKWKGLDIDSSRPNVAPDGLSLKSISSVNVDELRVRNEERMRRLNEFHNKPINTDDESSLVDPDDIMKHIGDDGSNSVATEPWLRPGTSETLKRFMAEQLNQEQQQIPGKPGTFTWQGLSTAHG
UniProt Q29980: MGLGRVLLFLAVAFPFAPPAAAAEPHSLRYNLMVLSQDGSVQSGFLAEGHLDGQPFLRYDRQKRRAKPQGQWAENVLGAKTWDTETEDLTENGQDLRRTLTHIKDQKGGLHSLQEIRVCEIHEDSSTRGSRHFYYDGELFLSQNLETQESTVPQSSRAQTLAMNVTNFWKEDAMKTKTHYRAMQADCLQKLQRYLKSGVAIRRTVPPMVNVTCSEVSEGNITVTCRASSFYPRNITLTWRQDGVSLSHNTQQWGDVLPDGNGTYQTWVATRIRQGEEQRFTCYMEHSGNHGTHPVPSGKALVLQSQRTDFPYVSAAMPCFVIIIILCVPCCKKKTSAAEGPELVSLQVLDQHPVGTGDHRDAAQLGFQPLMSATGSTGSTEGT
UniProt Q2TB10: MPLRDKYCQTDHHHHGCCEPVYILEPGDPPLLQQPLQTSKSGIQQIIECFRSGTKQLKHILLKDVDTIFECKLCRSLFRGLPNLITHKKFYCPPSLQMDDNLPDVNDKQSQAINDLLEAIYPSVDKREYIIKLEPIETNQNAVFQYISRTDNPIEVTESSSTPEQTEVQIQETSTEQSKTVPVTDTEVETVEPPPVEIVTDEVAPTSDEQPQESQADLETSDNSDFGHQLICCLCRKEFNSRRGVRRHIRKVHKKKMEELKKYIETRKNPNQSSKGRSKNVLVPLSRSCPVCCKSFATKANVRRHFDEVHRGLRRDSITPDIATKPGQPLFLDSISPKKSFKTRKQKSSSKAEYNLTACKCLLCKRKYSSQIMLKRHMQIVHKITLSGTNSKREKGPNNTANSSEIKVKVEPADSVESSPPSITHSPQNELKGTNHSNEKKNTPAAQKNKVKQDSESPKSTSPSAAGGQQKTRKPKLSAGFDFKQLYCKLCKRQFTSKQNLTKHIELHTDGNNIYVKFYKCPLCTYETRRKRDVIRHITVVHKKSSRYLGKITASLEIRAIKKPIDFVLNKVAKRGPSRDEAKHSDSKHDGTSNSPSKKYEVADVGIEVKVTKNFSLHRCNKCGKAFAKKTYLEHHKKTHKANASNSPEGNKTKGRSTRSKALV
UniProt Q16584: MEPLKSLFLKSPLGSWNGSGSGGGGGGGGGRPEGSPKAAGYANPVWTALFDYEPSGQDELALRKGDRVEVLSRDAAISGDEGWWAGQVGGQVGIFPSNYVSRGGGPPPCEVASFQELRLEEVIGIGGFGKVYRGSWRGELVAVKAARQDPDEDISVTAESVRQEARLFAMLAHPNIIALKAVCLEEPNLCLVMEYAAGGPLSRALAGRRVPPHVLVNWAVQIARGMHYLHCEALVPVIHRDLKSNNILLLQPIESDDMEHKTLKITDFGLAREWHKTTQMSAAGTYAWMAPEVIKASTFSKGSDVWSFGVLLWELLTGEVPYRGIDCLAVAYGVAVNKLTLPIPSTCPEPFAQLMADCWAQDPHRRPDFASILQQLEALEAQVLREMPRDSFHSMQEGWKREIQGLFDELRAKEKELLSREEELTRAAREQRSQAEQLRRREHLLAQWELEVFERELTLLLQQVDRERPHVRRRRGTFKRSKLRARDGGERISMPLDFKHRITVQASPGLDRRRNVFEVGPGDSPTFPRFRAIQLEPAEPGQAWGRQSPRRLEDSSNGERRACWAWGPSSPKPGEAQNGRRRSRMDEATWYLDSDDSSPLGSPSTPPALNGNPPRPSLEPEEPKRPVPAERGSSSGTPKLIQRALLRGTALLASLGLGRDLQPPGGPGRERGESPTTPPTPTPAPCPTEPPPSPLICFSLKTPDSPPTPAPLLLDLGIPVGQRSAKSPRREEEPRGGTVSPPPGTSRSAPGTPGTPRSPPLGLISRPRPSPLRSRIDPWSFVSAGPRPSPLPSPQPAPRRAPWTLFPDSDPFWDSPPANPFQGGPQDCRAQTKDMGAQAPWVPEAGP
UniProt Q1ED39: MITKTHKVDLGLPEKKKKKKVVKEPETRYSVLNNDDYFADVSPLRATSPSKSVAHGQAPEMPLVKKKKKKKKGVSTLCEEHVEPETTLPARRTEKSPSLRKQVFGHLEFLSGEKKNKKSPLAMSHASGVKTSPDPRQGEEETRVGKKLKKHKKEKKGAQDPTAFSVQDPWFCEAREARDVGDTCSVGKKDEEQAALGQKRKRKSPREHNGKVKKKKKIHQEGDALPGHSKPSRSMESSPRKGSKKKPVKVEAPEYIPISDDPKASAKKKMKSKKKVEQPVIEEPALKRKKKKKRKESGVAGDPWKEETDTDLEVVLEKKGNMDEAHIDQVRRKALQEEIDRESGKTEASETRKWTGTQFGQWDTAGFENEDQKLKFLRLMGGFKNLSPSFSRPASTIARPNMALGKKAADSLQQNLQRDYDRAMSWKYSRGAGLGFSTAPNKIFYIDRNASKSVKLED
UniProt Q15649: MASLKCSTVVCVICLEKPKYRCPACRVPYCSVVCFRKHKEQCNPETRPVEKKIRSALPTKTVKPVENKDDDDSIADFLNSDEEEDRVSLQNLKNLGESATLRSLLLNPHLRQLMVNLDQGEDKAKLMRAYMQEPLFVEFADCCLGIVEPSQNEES
UniProt Q15543, whole entry: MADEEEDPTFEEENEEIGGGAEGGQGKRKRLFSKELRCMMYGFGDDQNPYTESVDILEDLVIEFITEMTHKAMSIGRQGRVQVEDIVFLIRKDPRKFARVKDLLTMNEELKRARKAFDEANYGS
UniProt Q16526: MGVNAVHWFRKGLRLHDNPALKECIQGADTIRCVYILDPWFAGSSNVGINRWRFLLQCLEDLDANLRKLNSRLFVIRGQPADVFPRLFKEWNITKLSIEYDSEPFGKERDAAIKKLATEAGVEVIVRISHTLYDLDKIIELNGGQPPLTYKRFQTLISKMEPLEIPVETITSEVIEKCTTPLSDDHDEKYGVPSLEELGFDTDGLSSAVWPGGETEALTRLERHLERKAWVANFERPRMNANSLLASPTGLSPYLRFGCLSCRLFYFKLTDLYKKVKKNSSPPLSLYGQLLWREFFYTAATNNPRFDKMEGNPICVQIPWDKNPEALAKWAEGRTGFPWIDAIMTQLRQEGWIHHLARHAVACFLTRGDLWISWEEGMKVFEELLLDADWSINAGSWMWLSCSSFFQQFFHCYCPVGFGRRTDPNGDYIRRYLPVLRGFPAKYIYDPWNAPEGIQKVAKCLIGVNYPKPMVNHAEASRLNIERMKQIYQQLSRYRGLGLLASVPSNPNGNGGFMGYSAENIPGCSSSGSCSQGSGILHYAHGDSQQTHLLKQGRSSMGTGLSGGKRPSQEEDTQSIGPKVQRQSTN

Compound: CN[C@@H]1C[C@H]2O[C@@](C)([C@@H]1OC)n1c3ccccc3c3c4c(c5c6ccccc6n2c5c31)C(=O)NC4 [staurosporine]
Assay: log2 fold change of tryptic peptide abundance, ligand vs vehicle (limited proteolysis) (log2 ratio); higher = more trypsin-susceptible (destabilized)
Details: ligand concentration: 20 uM; sample: K562 cleared lysate; digestion: 4 min, 22 C (HT-PELSA RT4min, Orbitrap Astral)

Target	log2 fold change
ZBED5 (peptide sequence: KIDAVQLSNSTVAR, peptide start residue: 237) (UniProt Q49AG3)	-0.5
TRMT5 (peptide sequence: YNLELTYEHFKSEEILR, peptide start residue: 171) (UniProt Q32P41)	0.425
PFKFB4 (peptide sequence: SFEFFLPDNEEGLKIR, peptide start residue: 88) (UniProt Q16877)	-0.223
C2orf68 (peptide sequence: VSAHTPLDPPMR, peptide start residue: 137) (UniProt Q2NKX9)	0.0991
UniProt Q309B1 (peptide sequence: LQEENRK, peptide start residue: 388)	-0.0326
HNRNPA1L2 (peptide sequence: GHNCEVR, peptide start residue: 172) (UniProt Q32P51)	0.553
SNRNP35 (peptide sequence: VWPDNDWER, peptide start residue: 219) (UniProt Q16560)	-0.24
RALBP1 (peptide sequence: AKAEQQAQEDEEPEWR, peptide start residue: 599) (UniProt Q15311)	-0.162
TERF2 (peptide sequence: WNSSNGVEEK, peptide start residue: 453) (UniProt Q15554)	-0.336
CSPP1 (peptide sequence: ERNPMDIFDMAR, peptide start residue: 976) (UniProt Q1MSJ5)	0.454
RSU1 (peptide sequence: EIGELTQLK, peptide start residue: 175) (UniProt Q15404)	-0.336
UniProt Q29980 (peptide sequence: VCEIHEDSSTR, peptide start residue: 118)	-0.216
PUS10 (peptide sequence: KLESSVEELISDHLLAVFK, peptide start residue: 313) (UniProt Q3MIT2)	0.266
ZNF800 (peptide sequence: VKQDSESPK, peptide start residue: 451) (UniProt Q2TB10)	-0.355
LRRFIP1 (peptide sequence: TSPAAAQSR, peptide start residue: 2) (UniProt Q32MZ4)	-0.202
UniProt Q16584 (peptide sequence: ITVQASPGLDR, peptide start residue: 502)	-0.287
ELAVL1 (peptide sequence: SNGYEDHMAEDCR, peptide start residue: 2) (UniProt Q15717)	-0.535
UniProt Q15973 (peptide sequence: GEDQSIEDQYK, peptide start residue: 56)	-0.554
UniProt Q2YD98 (peptide sequence: AELELVLR, peptide start residue: 369)	-0.193

An excerpt of these results, field by field:
ZNF800 (peptide sequence: VKQDSESPK, peptide start residue: 451) (UniProt Q2TB10)
  log2 fold change: -0.355
LRRFIP1 (peptide sequence: TSPAAAQSR, peptide start residue: 2) (UniProt Q32MZ4)
  log2 fold change: -0.202

Next part.

Target	log2 fold change
PPP2R5E (peptide sequence: SSAPTTPPSVDKVDGFSR, peptide start residue: 2) (UniProt Q16537)	-0.092
PMVK (peptide sequence: RQADPGFFCR, peptide start residue: 84) (UniProt Q15126)	0.458
FSCN1 (peptide sequence: VNASASSLK, peptide start residue: 33) (UniProt Q16658)	-0.248
ZNF239 (peptide sequence: VSSQIDTQDSSVKFCK, peptide start residue: 68) (UniProt Q16600)	-1.05
CCDC88A (peptide sequence: MVQSSPPISGEDNKWER, peptide start residue: 1016) (UniProt Q3V6T2)	-0.366
SURF2 (peptide sequence: SELPGDVR, peptide start residue: 2) (UniProt Q15527)	0.169
NFIL3 (peptide sequence: LIALGEENATLK, peptide start residue: 105) (UniProt Q16649)	-0.674
NRF1 (peptide sequence: KRPHVFESNPSIR, peptide start residue: 92) (UniProt Q16656)	-0.243
UniProt Q3YBR2 (peptide sequence: SLLDGLASSPR, peptide start residue: 2)	0.19
UniProt Q1ED39 (peptide sequence: QVFGHLEFLSGEKK, peptide start residue: 102)	0.481
UBE2V2 (peptide sequence: YPEAPPSVR, peptide start residue: 73) (UniProt Q15819)	0.187
ZNHIT3 (peptide sequence: SLLLNPHLR, peptide start residue: 103) (UniProt Q15649)	0.392
TRIP6 (peptide sequence: VAQPVRGCGPPR, peptide start residue: 174) (UniProt Q15654)	-0.157
UniProt Q15543 (peptide sequence: VKDLLTMNEELKR, peptide start residue: 100)	0.403
CRY1 (peptide sequence: SSMGTGLSGGK, peptide start residue: 555) (UniProt Q16526)	0.141
NCOA1 (peptide sequence: NSHTFNCR, peptide start residue: 191) (UniProt Q15788)	0.702
SAFB (peptide sequence: MSSPEDDSDTKR, peptide start residue: 382) (UniProt Q15424)	-0.163
UniProt Q49A88 (peptide sequence: NGLAALDANIAR, peptide start residue: 930)	0.488
